Results are given in words; binding and its absence hold for the method and conditions named. In cells and extracts the contact can be indirect. Some entries that bind do so weakly or less than the wild type.
Legend:
[1] = target: p53 (UniProt P04637); assay: co-IP of mixed E. coli extracts
[2] = target: p53 (UniProt P04637); assay: co-IP with anti-p53 antibody of mixed E. coli extracts, Western blot for sGCα1
[3] = target: p53 (UniProt P04637); assay: co-IP with anti-p53 antibody from LNCaP cytoplasmic extract, Western blot
[4] = target: p53 (UniProt P04637); assay: co-IP of mixed E. coli (BL21) extracts, Western blot (figure legend)
[5] = target: p53 (UniProt P04637); assay: co-immunoprecipitation, gel filtration and immunocytochemistry of endogenous proteins in LNCaP cells (figure legend)
[6] = target: p53 (UniProt P04637); assay: summary of co-IP and co-localization of endogenous proteins in LNCaP cells

- binding [1]: binds
- binding [2]: binds
- binding [3]: binds
- binding [4]: binds
- binding [5]: binds
- binding [6]: binds
B1: soluble guanylyl cyclase alpha 1 (sGCα1) (enzyme, UniProt Q02108 1-690, looked up)
chain: MFCTKLKDLKITGECPFSLLAPGQVPNESSEEAAGSSESCKATVPICQDIPEKNIQESLPQRKTSRSRVYLHTLAESICKLIFPEFERLNVALQRTLAKHKIKESRKSLEREDFEKTIAEQAVAAGVPVEVIKESLGEEVFKICYEEDENILGVVGGTLKDFLNSFSTLLKQSSHCQEAGKRGRLEDASILCLDKEDDFLHVYYFFPKRTTSLILPGIIKAAAHVLYETEVEVSLMPPCFHNDCSEFVNQPYLLYSVHMKSTKPSLSPSKPQSSLVIPTSLFCKTFPFHFMFDKDMTILQFGNGIRRLMNRRDFQGKPNFEEYFEILTPKINQTFSGIMTMLNMQFVVRVRRWDNSVKKSSRVMDLKGQMIYIVESSAILFLGSPCVDRLEDFTGRGLYLSDIPIHNALRDVVLIGEQARAQDGLKKRLGKLKATLEQAHQALEEEKKKTVDLLCSIFPCEVAQQLWQGQVVQAKKFSNVTMLFSDIVGFTAICSQCSPLQVITMLNALYTRFDQQCGELDVYKVETIGDAYCVAGGLHKESDTHAVQIALMALKMMELSDEVMSPHGEPIKMRIGLHSGSVFAGVVGVKMPRYCLFGNNVTLANKFESCSVPRKINVSPTTYRLLKDCPGFVFTPRSREELPPNFPSEIPGICHFLDAYQQGTNSKPCFQKKDVEDGNANFLGKASGID
